Data published in paper PMC11071249.
No constants are given. Whether binding was seen depends on the method and setting. In cells and extracts the contact can be indirect. Some entries that bind do so weakly or less than the wild type.

Sequences of proteins named here, by UniProt entry; tags and fusion partners are left off.
UniProt Q9Y4B6: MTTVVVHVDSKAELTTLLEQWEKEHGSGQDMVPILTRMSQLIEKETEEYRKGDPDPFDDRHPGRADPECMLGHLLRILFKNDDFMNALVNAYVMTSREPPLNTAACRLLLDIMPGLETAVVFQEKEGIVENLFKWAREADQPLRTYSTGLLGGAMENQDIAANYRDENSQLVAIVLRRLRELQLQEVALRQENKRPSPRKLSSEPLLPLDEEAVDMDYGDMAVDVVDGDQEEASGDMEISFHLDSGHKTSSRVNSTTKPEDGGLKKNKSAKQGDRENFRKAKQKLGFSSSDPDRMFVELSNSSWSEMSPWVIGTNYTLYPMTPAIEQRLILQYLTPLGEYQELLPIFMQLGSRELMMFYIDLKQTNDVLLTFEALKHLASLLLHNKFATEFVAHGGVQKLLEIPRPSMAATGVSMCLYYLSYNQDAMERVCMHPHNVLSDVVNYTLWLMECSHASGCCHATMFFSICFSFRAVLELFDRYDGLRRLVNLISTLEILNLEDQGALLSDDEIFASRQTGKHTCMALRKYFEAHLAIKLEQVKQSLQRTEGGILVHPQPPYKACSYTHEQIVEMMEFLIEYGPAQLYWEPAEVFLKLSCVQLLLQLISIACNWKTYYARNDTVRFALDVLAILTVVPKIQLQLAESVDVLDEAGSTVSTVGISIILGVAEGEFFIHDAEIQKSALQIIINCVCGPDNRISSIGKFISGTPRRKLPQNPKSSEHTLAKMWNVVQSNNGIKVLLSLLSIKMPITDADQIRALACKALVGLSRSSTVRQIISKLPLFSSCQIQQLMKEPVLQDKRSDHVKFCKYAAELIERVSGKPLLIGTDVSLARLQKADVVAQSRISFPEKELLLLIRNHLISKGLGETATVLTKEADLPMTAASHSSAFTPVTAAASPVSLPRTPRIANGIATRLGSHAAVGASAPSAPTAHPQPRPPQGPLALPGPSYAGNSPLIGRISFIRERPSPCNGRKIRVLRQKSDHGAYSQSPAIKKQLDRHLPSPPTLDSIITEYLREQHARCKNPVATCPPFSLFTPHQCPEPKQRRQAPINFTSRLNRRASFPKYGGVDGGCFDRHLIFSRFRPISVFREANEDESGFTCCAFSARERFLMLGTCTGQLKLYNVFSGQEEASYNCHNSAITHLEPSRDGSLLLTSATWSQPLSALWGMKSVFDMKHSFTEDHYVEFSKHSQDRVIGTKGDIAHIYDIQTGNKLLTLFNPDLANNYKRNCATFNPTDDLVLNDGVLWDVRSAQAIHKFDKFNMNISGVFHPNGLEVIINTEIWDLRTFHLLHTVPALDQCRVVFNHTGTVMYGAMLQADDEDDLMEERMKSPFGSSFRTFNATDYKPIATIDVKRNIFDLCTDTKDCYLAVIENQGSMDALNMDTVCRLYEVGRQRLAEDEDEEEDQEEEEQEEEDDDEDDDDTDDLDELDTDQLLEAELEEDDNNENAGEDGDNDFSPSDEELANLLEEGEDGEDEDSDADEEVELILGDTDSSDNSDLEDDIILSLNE
UniProt Q8TEW0: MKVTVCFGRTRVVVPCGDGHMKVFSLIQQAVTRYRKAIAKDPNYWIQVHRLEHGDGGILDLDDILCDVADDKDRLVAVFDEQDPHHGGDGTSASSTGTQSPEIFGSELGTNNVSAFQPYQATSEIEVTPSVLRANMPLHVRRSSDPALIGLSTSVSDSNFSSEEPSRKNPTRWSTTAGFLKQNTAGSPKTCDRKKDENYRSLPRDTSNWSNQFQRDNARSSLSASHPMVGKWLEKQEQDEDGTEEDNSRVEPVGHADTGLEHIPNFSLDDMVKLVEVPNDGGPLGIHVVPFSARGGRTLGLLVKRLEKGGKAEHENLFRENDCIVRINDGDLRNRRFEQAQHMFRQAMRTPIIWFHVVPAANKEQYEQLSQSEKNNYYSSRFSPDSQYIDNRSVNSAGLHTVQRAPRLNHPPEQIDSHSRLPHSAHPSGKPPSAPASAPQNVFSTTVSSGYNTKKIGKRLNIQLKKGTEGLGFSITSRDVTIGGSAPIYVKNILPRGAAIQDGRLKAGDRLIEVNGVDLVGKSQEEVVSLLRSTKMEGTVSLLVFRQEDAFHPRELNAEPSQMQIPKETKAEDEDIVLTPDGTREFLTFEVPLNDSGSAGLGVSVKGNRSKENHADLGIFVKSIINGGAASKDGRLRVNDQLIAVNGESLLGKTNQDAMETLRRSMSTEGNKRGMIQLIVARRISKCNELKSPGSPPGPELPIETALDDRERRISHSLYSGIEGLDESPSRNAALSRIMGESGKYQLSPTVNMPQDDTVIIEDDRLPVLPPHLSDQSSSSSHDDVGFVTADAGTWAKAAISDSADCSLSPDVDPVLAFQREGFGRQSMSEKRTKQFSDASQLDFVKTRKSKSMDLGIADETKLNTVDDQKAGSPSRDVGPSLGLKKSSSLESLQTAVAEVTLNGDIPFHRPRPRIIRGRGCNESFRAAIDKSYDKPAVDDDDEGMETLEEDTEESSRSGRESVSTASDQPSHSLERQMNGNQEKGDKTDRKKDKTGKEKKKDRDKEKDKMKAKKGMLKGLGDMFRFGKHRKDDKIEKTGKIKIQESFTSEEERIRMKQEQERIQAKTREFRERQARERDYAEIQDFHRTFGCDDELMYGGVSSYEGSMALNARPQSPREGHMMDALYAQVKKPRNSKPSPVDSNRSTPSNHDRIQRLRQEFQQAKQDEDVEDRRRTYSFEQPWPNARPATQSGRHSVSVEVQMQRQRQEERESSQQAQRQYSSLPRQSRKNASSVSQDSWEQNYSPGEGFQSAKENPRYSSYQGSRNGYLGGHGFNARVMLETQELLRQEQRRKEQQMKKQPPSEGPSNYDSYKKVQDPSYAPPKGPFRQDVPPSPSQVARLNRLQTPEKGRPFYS

Target: DDB1 and CUL4 associated factor 1 (DCAF1) (UniProt Q9Y4B6)
Experiment: co-IP; cell lysates incubated with primary antibodies and Protein A + G magnetic beads at 4°C overnight, Western blot; cells not told

- binding: binds
Substance: par-3 family cell polarity regulator (PARD3) (from UniProt Q8TEW0 1-1356)
